PubChem BioAssay AID1259424 | University of Nebraska Medical Center, 2018
Shown is a random part of about 14,000 reagents. 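Higher correlation or smaller distance means closer resemblance to KSR1 loss; control wells, including KSR1 knockdowns, recur on many plates.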 Some reagents were tested in more than one well and are listed for each. Further read-outs or replicates are left out here. Not stated in the record: the time to read-out.

Aim: 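Seek colon cancer survival genes behaving like KSR1, using a six-gene signature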 (primary screen)
Cells: human HCT116 colon cancer cells
Knock-down reagent: siRNA pool against human genes, 50 nM
Detection: 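Log2 levels of six mRNAs (branched-DNA multiplex), adjusted by two reference genes and the non-targeting median, then scored against the average KSR1 knockdown pattern as Pearson r and euclidean distance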
Direction: mean correlation with KSR1 profile: higher = expression change more like KSR1 knockdown; mean distance from KSR1 profile: higher = expression change less like KSR1 knockdown

With knock-down of ABHD13 (abhydrolase domain containing 13), the record shows mean correlation with KSR1 profile 0.659; mean distance from KSR1 profile 1.95. For CXCL2 (C-X-C motif chemokine ligand 2), the values are mean correlation with KSR1 profile 0.744; mean distance from KSR1 profile 1.05. Against NOSIP (nitric oxide synthase interacting protein), the values are mean correlation with KSR1 profile -0.0211; mean distance from KSR1 profile 3.06. Against SCG2 (secretogranin II), the entry reads mean correlation with KSR1 profile 0.652; mean distance from KSR1 profile 2.16. Depletion of FRAS1 (Fraser extracellular matrix complex subunit 1) resulted in: mean correlation with KSR1 profile 0.25; mean distance from KSR1 profile 2.01. Silencing of IGF2BP1 (insulin like growth factor 2 mRNA binding protein 1) came out at: mean correlation with KSR1 profile 0.466; mean distance from KSR1 profile 1.49.

Knock-down of NDUFB10 (NADH:ubiquinone oxidoreductase subunit B10) resulted in: mean correlation with KSR1 profile 0.399; mean distance from KSR1 profile 1.09. After knock-down of CST6 (cystatin E/M), the record shows mean correlation with KSR1 profile 0.0205; mean distance from KSR1 profile 2.31. With knock-down of HACD2 (3-hydroxyacyl-CoA dehydratase 2), the screen gave mean correlation with KSR1 profile -0.546; mean distance from KSR1 profile 3.29. UBQLN4 (ubiquilin 4) showed mean correlation with KSR1 profile -0.12; mean distance from KSR1 profile 3.61. Against FABP1 (fatty acid binding protein 1), the entry reads mean correlation with KSR1 profile -0.0744; mean distance from KSR1 profile 1.9. ATP6V0A4 (ATPase H+ transporting V0 subunit a4) scored mean correlation with KSR1 profile -0.179; mean distance from KSR1 profile 1.92.

For KCNQ4 (potassium voltage-gated channel subfamily Q member 4), the values are mean correlation with KSR1 profile 0.0509; mean distance from KSR1 profile 2.18. After knock-down of TBX1 (T-box transcription factor 1) the results were mean correlation with KSR1 profile -0.484; mean distance from KSR1 profile 3.76. With knock-down of UGT1A9 (UDP glucuronosyltransferase family 1 member A9), the screen gave mean correlation with KSR1 profile -0.0692; mean distance from KSR1 profile 2.83. Depletion of MOB1A (MOB kinase activator 1A) came out at: mean correlation with KSR1 profile -0.596; mean distance from KSR1 profile 9.43. Depletion of WDR55 (WD repeat domain 55) resulted in: mean correlation with KSR1 profile 0.142; mean distance from KSR1 profile 2.38. TIAM2 (TIAM Rac1 associated GEF 2) gave mean correlation with KSR1 profile -0.443; mean distance from KSR1 profile 2.57.

For TIAM2 (TIAM Rac1 associated GEF 2) the deposit lists mean correlation with KSR1 profile -0.729; mean distance from KSR1 profile 2.8. For HEY2, the values are mean correlation with KSR1 profile 0.155; mean distance from KSR1 profile 1.98. VCY (variable charge Y-linked) showed mean correlation with KSR1 profile -0.257; mean distance from KSR1 profile 3.37. FGF13 (fibroblast growth factor 13) gave mean correlation with KSR1 profile 0.702; mean distance from KSR1 profile 0.704. SIPA1L3 (signal induced proliferation associated 1 like 3) scored mean correlation with KSR1 profile -0.449; mean distance from KSR1 profile 2.74. After knock-down of CHAT (choline O-acetyltransferase), the screen gave mean correlation with KSR1 profile 0.115; mean distance from KSR1 profile 1.96.

For CLN8 (CLN8 transmembrane ER and ERGIC protein), the values are mean correlation with KSR1 profile -0.361; mean distance from KSR1 profile 1.91. TRAFD1 (TRAF-type zinc finger domain containing 1) showed mean correlation with KSR1 profile 0.0614; mean distance from KSR1 profile 1.7. After knock-down of LILRA4 (leukocyte immunoglobulin like receptor A4), the screen gave mean correlation with KSR1 profile -0.764; mean distance from KSR1 profile 1.84. Against PAF1 (PAF1 component of Paf1/RNA polymerase II complex), the values are mean correlation with KSR1 profile -0.702; mean distance from KSR1 profile 2.91. Against ACKR5 (atypical chemokine receptor 5), the entry reads mean correlation with KSR1 profile 0.151; mean distance from KSR1 profile 2.62. For CXCR6 (C-X-C motif chemokine receptor 6) the deposit lists mean correlation with KSR1 profile 0.15; mean distance from KSR1 profile 2.58.

IGHV5-78 (immunoglobulin heavy variable 5-78 (pseudogene)) gave mean correlation with KSR1 profile -0.532; mean distance from KSR1 profile 3.08. ELAVL4 (ELAV like RNA binding protein 4) scored mean correlation with KSR1 profile -0.538; mean distance from KSR1 profile 3.51. AGER (advanced glycosylation end-product specific receptor) gave mean correlation with KSR1 profile 0.171; mean distance from KSR1 profile 1.81. RPGRIP1L (RPGRIP1 like) showed mean correlation with KSR1 profile 0.582; mean distance from KSR1 profile 1.38. Knock-down of CREBL2 (cAMP responsive element binding protein like 2) resulted in: mean correlation with KSR1 profile -0.0813; mean distance from KSR1 profile 1.98. For PGAP1 (post-GPI attachment to proteins inositol deacylase 1) the deposit lists mean correlation with KSR1 profile -0.0854; mean distance from KSR1 profile 1.72.

Targets above whose gene name starts with C or c (6):
CXCL2 (C-X-C motif chemokine ligand 2) | mean correlation with KSR1 profile = 0.744; mean distance from KSR1 profile = 1.05
CST6 (cystatin E/M) | mean correlation with KSR1 profile = 0.0205; mean distance from KSR1 profile = 2.31
CHAT (choline O-acetyltransferase) | mean correlation with KSR1 profile = 0.115; mean distance from KSR1 profile = 1.96
CLN8 (CLN8 transmembrane ER and ERGIC protein) | mean correlation with KSR1 profile = -0.361; mean distance from KSR1 profile = 1.91
CXCR6 (C-X-C motif chemokine receptor 6) | mean correlation with KSR1 profile = 0.15; mean distance from KSR1 profile = 2.58
CREBL2 (cAMP responsive element binding protein like 2) | mean correlation with KSR1 profile = -0.0813; mean distance from KSR1 profile = 1.98
